Reference: US20260070946A1, “TYR PEPTIDE COMPOSITIONS AND METHODS FOR USE” (UNIVERSITY OF MIAMI, priority 2022, published 2026)
Some results were stated once for a whole list of compounds, not compound by compound.

System: chondrosarcoma and fibrosarcoma
Conditions: in vitro conditions

AGAPEPAEPAQPGVY [PRP-1]
inhibition of chondrosarcoma and fibrosarcoma growth: 80-90%
